# According to the supplement of paper PMC4604168 (melanoma cell lines):
# The list shows a part of the results. Single values are uncertain, as repeats are few or missing.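 The apoptosis fraction was the count of cleaved-PARP antibody-stained nuclei relative to all DNA-stained nuclei, imaged in 1,536-well plates. Screening doses were set so most cells survived, and baseline and induced cleaved-PARP levels vary greatly across cell lines.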
# Key:
# Assay in all cases: cleaved PARP positive nuclei fraction relative to DMSO control; melanoma cells; higher = more apoptosis
# Settings in all cases: library dose: low library concentration; 72 h
# WM115 = system: WM115
# WM1716 = system: WM1716
# WM1745 = system: WM1745
# WM3526 = system: WM3526
# WM3619 = system: WM3619
# WM451Lu = system: WM451Lu
compound,measurement,setting,value
"Cn1cc(/C=C2\C(=O)Nc3cccnc32)c2ccccc21 + CC(C)CCN1c2nc(Nc3cc(F)c(O)c(F)c3)ncc2N(C)C(=O)C1C [BID1870] (first compound 0.4 µM, partner dose 0.2 µM)",cleaved PARP positive nuclei fraction,WM115,70%
same,cleaved PARP positive nuclei fraction,WM1716,50.9%
same,cleaved PARP positive nuclei fraction,WM1745,101%
same,cleaved PARP positive nuclei fraction,WM3526,51.2%
same,cleaved PARP positive nuclei fraction,WM3619,82.6%
same,cleaved PARP positive nuclei fraction,WM451Lu,266%
"O=C(O)c1ccc(-c2c[nH]c3ncc(-c4ccccc4)cc23)cc1C1CCCC1 + COc1ccc(-c2ccc3c(N4CCOCC4)nc(N4C[C@@H](C)O[C@@H](C)C4)nc3n2)cc1CO [KU0063794] (first compound 0.16 µM, partner dose 0.02 µM)",cleaved PARP positive nuclei fraction,WM115,56.2%
same,cleaved PARP positive nuclei fraction,WM1716,77.9%
same,cleaved PARP positive nuclei fraction,WM1745,102%
same,cleaved PARP positive nuclei fraction,WM3526,73.9%
same,cleaved PARP positive nuclei fraction,WM3619,86.1%
same,cleaved PARP positive nuclei fraction,WM451Lu,46.4%
"O=C(O)C(=O)Nc1sc2c(c1C(=O)O)CCNC2 + CC(C)CCN1c2nc(Nc3cc(F)c(O)c(F)c3)ncc2N(C)C(=O)C1C [BID1870] (first compound 1.66667 µM, partner dose 0.2 µM)",cleaved PARP positive nuclei fraction,WM115,35.2%
same,cleaved PARP positive nuclei fraction,WM1716,163%
same,cleaved PARP positive nuclei fraction,WM1745,131%
same,cleaved PARP positive nuclei fraction,WM3526,77.8%
same,cleaved PARP positive nuclei fraction,WM3619,55.5%
same,cleaved PARP positive nuclei fraction,WM451Lu,27.8%
"Oc1cc(-c2nc(-c3ccccc3)[nH]c2-c2ccncc2)ccc1Cl + Cc1cc([N+](=O)[O-])ccc1NS(=O)(=O)c1cc(Cl)ccc1Cl [FH535] (first compound 0.2 µM, partner dose 1 µM)",cleaved PARP positive nuclei fraction,WM115,278%
same,cleaved PARP positive nuclei fraction,WM1716,38.7%
same,cleaved PARP positive nuclei fraction,WM1745,134%
same,cleaved PARP positive nuclei fraction,WM3526,44%
same,cleaved PARP positive nuclei fraction,WM3619,110%
same,cleaved PARP positive nuclei fraction,WM451Lu,116%
"O=S(=O)(c1ccccc1)N(CC(F)(F)F)c1ccc(C(O)(C(F)(F)F)C(F)(F)F)cc1 + COc1cc(N2CCC(N3CCN(C)CC3)CC2)ccc1Nc1ncc(Cl)c(Nc2ccccc2S(=O)(=O)C(C)C)n1 [NVP-TAE684] (first compound 1.4 µM, partner dose 0.08 µM)",cleaved PARP positive nuclei fraction,WM115,287%
same,cleaved PARP positive nuclei fraction,WM1716,126%
same,cleaved PARP positive nuclei fraction,WM1745,122%
same,cleaved PARP positive nuclei fraction,WM3526,86.2%
same,cleaved PARP positive nuclei fraction,WM3619,816%
same,cleaved PARP positive nuclei fraction,WM451Lu,127%
"COc1ccc(-c2ccc3c(N4CCOCC4)nc(N4C[C@@H](C)O[C@@H](C)C4)nc3n2)cc1CO + CC(C)CCN1c2nc(Nc3cc(F)c(O)c(F)c3)ncc2N(C)C(=O)C1C [BID1870] (first compound 0.02 µM, partner dose 0.2 µM)",cleaved PARP positive nuclei fraction,WM115,231%
same,cleaved PARP positive nuclei fraction,WM1716,259%
same,cleaved PARP positive nuclei fraction,WM1745,103%
same,cleaved PARP positive nuclei fraction,WM3526,69.1%
same,cleaved PARP positive nuclei fraction,WM3619,96.9%
same,cleaved PARP positive nuclei fraction,WM451Lu,162%
"O=C(O)c1ccc(-c2c[nH]c3ncc(-c4ccccc4)cc23)cc1C1CCCC1 + O=S(=O)(c1ccccc1)N(CC(F)(F)F)c1ccc(C(O)(C(F)(F)F)C(F)(F)F)cc1 [T0901317] (first compound 0.16 µM, partner dose 1.4 µM)",cleaved PARP positive nuclei fraction,WM115,50.3%
same,cleaved PARP positive nuclei fraction,WM1716,182%
same,cleaved PARP positive nuclei fraction,WM1745,116%
same,cleaved PARP positive nuclei fraction,WM3526,64%
same,cleaved PARP positive nuclei fraction,WM3619,104%
same,cleaved PARP positive nuclei fraction,WM451Lu,126%
"CN(NC(=O)CC(=O)NN(C)C(=S)c1ccccc1)C(=S)c1ccccc1 + O=C1NC(=O)/C(=C/c2ccc(-c3ccc(F)cc3O)o2)S1 [AS252424] (first compound 0.006 µM, partner dose 1 µM)",cleaved PARP positive nuclei fraction,WM115,113%
same,cleaved PARP positive nuclei fraction,WM1716,137%
same,cleaved PARP positive nuclei fraction,WM1745,110%
same,cleaved PARP positive nuclei fraction,WM3526,70.9%
same,cleaved PARP positive nuclei fraction,WM3619,163%
same,cleaved PARP positive nuclei fraction,WM451Lu,110%
"CCc1ccc(CCOc2ccc(CC3SC(=O)NC3=O)cc2)nc1 (centres undefined) [pioglitazone] + O=c1cc(-c2cccc3c2Sc2ccccc2S3)oc(N2CCOCC2)c1 [KU55933] (first compound 2 µM, partner dose 1 µM)",cleaved PARP positive nuclei fraction,WM115,145%
same,cleaved PARP positive nuclei fraction,WM1716,127%
same,cleaved PARP positive nuclei fraction,WM1745,99.3%
same,cleaved PARP positive nuclei fraction,WM3526,65.5%
same,cleaved PARP positive nuclei fraction,WM3619,88.3%
same,cleaved PARP positive nuclei fraction,WM451Lu,114%
"COc1ccc2c(c1)CCC1C2CCC2(C)C(NCCCCCCN3C(=O)C=CC3=O)CCC12 (centres undefined) + Oc1nc(-c2ccc(C(F)(F)F)cc2)nc2c1CSCC2 [XAV939] (first compound 0.4 µM, partner dose 2 µM)",cleaved PARP positive nuclei fraction,WM115,73.2%
same,cleaved PARP positive nuclei fraction,WM1716,329%
same,cleaved PARP positive nuclei fraction,WM1745,109%
same,cleaved PARP positive nuclei fraction,WM3526,32.7%
same,cleaved PARP positive nuclei fraction,WM3619,91.8%
same,cleaved PARP positive nuclei fraction,WM451Lu,144%
"CCCCCCCCCCCC1=C(O)C(=O)C=C(O)C1=O [Embelin] + O=c1cc(-c2cccc3c2Sc2ccccc2S3)oc(N2CCOCC2)c1 [KU55933] (first compound 1.2 µM, partner dose 1 µM)",cleaved PARP positive nuclei fraction,WM115,68.4%
same,cleaved PARP positive nuclei fraction,WM1716,137%
same,cleaved PARP positive nuclei fraction,WM1745,135%
same,cleaved PARP positive nuclei fraction,WM3526,70%
same,cleaved PARP positive nuclei fraction,WM3619,90.5%
same,cleaved PARP positive nuclei fraction,WM451Lu,83.2%
"COc1ccc2c(c1)CCC1C2CCC2(C)C(NCCCCCCN3C(=O)C=CC3=O)CCC12 (centres undefined) + COc1ccc(COc2ccc(Cc3cnc(N)nc3N)cc2OC)cc1 [GW2580] (first compound 0.4 µM, partner dose 1 µM)",cleaved PARP positive nuclei fraction,WM115,70.1%
same,cleaved PARP positive nuclei fraction,WM1716,129%
same,cleaved PARP positive nuclei fraction,WM1745,125%
same,cleaved PARP positive nuclei fraction,WM3526,72.2%
same,cleaved PARP positive nuclei fraction,WM3619,84.3%
same,cleaved PARP positive nuclei fraction,WM451Lu,275%
"O=S(=O)(c1ccccc1)N(CC(F)(F)F)c1ccc(C(O)(C(F)(F)F)C(F)(F)F)cc1 + Oc1cc(-c2nc(-c3ccccc3)[nH]c2-c2ccncc2)ccc1Cl [L779450] (first compound 1.4 µM, partner dose 0.2 µM)",cleaved PARP positive nuclei fraction,WM115,50.3%
same,cleaved PARP positive nuclei fraction,WM1716,93.4%
same,cleaved PARP positive nuclei fraction,WM1745,115%
same,cleaved PARP positive nuclei fraction,WM3526,96.6%
same,cleaved PARP positive nuclei fraction,WM3619,112%
same,cleaved PARP positive nuclei fraction,WM451Lu,120%
"c1cc(-c2cnn3cc(-c4ccc(OCCN5CCCCC5)cc4)cnc23)ccn1 [Dorsomorphin] + COc1cc(N2CCC(N3CCN(C)CC3)CC2)ccc1Nc1ncc(Cl)c(Nc2ccccc2S(=O)(=O)C(C)C)n1 [NVP-TAE684] (first compound 0.4 µM, partner dose 0.08 µM)",cleaved PARP positive nuclei fraction,WM115,176%
same,cleaved PARP positive nuclei fraction,WM1716,122%
same,cleaved PARP positive nuclei fraction,WM1745,125%
same,cleaved PARP positive nuclei fraction,WM3526,99.5%
same,cleaved PARP positive nuclei fraction,WM3619,135%
same,cleaved PARP positive nuclei fraction,WM451Lu,62.6%

# 5 neighbouring entries out of the list so far, for reference:
compound,measurement,setting,value
"CCCCCCCCCCCC1=C(O)C(=O)C=C(O)C1=O [Embelin] + O=c1cc(-c2cccc3c2Sc2ccccc2S3)oc(N2CCOCC2)c1 [KU55933] (first compound 1.2 µM, partner dose 1 µM)",cleaved PARP positive nuclei fraction,WM451Lu,83.2%
"COc1ccc2c(c1)CCC1C2CCC2(C)C(NCCCCCCN3C(=O)C=CC3=O)CCC12 (centres undefined) + COc1ccc(COc2ccc(Cc3cnc(N)nc3N)cc2OC)cc1 [GW2580] (first compound 0.4 µM, partner dose 1 µM)",cleaved PARP positive nuclei fraction,WM115,70.1%
same,cleaved PARP positive nuclei fraction,WM1716,129%
same,cleaved PARP positive nuclei fraction,WM1745,125%
same,cleaved PARP positive nuclei fraction,WM3526,72.2%
